Data from patent US12122736B2, “Salty taste-enhancing agent and manufacturing method therefor, and salty taste-enhancing method” (NISSIN FOODS HOLDINGS CO., LTD., priority 2012, dated 2024).
Some entries repeat one wording, which the source may state once for all of them.

Test: Sensory evaluation of salty taste-enhancing action in salt aqueous solution (Example 1)
Conditions: 0.150 wt % evaluation sample and 0.700 wt % sodium chloride in distilled water
Description: The salty taste-enhancing action may be evaluated by a sensory test.
Each evaluation sample and sodium chloride (salt) were dissolved in distilled water to prepare an aqueous solution containing 0.150 wt % of the evaluation sample and 0.700 wt % of sodium chloride, which was used as an evaluation solution. In addition, solutions containing 0.700 wt %, 0.735 wt %, 0.770 wt %, 0.805 wt %, and 0.840% of sodium chloride were used as comparative objects.

N=C(N)NCCCCCC(=O)O [6-Guanidinocaproic acid]
Foreign taste and foreign odor: Almost no foreign taste and foreign odor were sensed.

N=C(N)NCCCO [Example 14]
Foreign taste and foreign odor: A bitter taste was sensed.

Cl.N=C(N)N [Guanidine hydrochloride]
Foreign taste and foreign odor: Almost no foreign taste and foreign odor were sensed.

N=C(N)NCCC(=O)O [β-Guanidinopropanoic acid]
Foreign taste and foreign odor: Almost no foreign taste and foreign odor were sensed.
